Measured values: patent publication US20200230207A1, “TREATMENT OF BONE GROWTH DISORDERS” (FONDAZIONE TELETHON, priority 2015, published 2020)
These are yes or no findings as the source states them, for the method shown. In cells and extracts the contact can be indirect. Some entries that bind do so weakly or less than the wild type.

Target: T1, Rubicon (endogenous, RCS chondrocytes) (rat (endogenous in RCS rat chondrosarcoma chondrocytes))
T1 sequence: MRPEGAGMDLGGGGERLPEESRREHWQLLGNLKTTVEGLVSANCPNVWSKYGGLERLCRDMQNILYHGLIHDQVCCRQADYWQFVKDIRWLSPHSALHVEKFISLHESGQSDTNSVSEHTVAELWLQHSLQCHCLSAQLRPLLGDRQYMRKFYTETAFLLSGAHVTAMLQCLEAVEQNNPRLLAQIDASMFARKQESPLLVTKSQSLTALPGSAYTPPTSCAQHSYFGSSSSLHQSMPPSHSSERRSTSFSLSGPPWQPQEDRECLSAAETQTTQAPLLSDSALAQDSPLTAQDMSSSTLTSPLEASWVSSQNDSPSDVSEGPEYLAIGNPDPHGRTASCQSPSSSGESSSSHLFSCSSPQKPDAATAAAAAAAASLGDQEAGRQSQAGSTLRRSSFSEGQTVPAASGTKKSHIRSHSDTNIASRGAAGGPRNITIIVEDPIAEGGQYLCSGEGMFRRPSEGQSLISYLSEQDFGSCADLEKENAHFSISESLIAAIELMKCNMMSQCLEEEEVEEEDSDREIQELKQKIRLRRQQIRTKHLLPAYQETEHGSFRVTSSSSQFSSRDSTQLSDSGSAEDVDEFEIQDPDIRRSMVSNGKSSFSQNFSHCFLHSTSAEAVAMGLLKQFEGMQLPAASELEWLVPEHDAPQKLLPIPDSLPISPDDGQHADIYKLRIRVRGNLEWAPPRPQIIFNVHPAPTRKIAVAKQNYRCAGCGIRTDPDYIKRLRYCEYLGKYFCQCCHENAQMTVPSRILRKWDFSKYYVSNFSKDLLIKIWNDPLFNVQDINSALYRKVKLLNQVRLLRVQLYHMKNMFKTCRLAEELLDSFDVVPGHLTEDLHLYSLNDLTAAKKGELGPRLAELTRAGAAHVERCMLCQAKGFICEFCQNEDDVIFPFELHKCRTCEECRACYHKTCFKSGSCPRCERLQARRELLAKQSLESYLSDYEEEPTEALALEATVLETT
Experiment: co-immunoprecipitation from RCS WT and GusbKO chondrocyte lysates with a UVRAG-specific antibody, western blot for Rubicon

B1: UVRAG (UV radiation resistance-associated gene protein; endogenous, RCS chondrocytes) (protein)
chain: MSSCASLGGPVPLPPPGPSAALTPGAPTRALHVELPSQQRRLRHLRNIAARNIVNRNGHQLLDTYFTLHLCDNEKICKEFYRSEVIKNSLNPTWRSLDFGIMPDRLDTSVSCFVVKIWGGKEEAYQLLIEWKVYLDGLKYLGQQIHARNQNEIIFGLNDGYYGAPFEHKAHPNAQKNLLQVDQNCVRNSYDVFSLLRLHRAQCAIKQTQVTVQRIGKEIEEKLRLTSTSNELKKESECLRLKILVLRNELERQKKALGREVAFLHKQQMALQDKGSAFAAEHAKLQLQKESLRELRKECTAKRELFLKTNAQLTIRCRQLLSELSYIYPIDLNEHKDYFVCGVKLPNSEDFQAKDDGSIAVALGYTAHLVSMISFFLQVPLRYPIIHKGSRSTIKDNINDKLTEKEREFPLYPKGGEKLQFDYGVYLLNKNIAQLRYQHGLGTPDLRQTLPNLKNFMEHGLMVRCDRHHISSAIPVPKRQSSTFRGADVGLSTGVPSPDNVHRKRASSENERLQYKTPPPSYNSALTQHGVAMPTLGDSERKVTPLSSSLDTSLDFSKESKKTGVDLGNSVSGDHRNVDSSQEQGEALPGHLATINGTALPSEQPGPAGTLLPGLCHPAPSAELCCAVEQAEEIIGLEATGFTSGDQLEALSCIPVDSAVAVECDEQVLGEFEEFSRRIYALSENVSSFRRPRRSSDK
binding: binds
